# Some of the results follow.
# Tests used:
# Assay in all cases: glycan array binding signal (z-score within array); higher = stronger binding
# Conditions in all cases: glycan notation: IUPAC condensed, linker removed
# [1] = target: Man(a1-2)Man(a1-6)[Man(a1-3)]Man(a1-6)[Man(a1-2)Man(a1-2)Man(a1-3)]Man(b1-4)GlcNAc(b1-4)GlcNAc
# Summary of the method: (§1)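 Negative Z-scores can be read as non-binding. The Z-score is calculated within each array and then averaged across arrays of one protein sequence at different concentrations or buffers and across linkers. Arrays, 3228 in all, were curated from the Consortium for Functional Glycomics database and kept only where the protein sequence was available.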
# Man(a1-3)[Man(a1-6)]Man = target: Man(a1-3)[Man(a1-6)]Man
# Summary of the method: as §1
# [2] = target: Man(a1-3)[Man(a1-6)]Man(a1-6)[Man(a1-2)Man(a1-3)]Man(b1-4)GlcNAc(b1-4)GlcNAc
# Summary of the method: as §1
# [3] = target: Man(a1-3)[Man(a1-6)]Man(a1-6)[Man(a1-3)]Man
# Summary of the method: as §1
# [4] = target: Man(a1-3)[Man(a1-6)]Man(a1-6)[Man(a1-3)]Man(b1-4)GlcNAc(b1-4)GlcNAc
# Summary of the method: as §1
# [5] = target: Man(a1-3)[Man(a1-6)]Man(b1-4)GlcNAc(b1-4)GlcNAc
# Summary of the method: as §1
# Man(a1-6)Man = target: Man(a1-6)Man
# Summary of the method: as §1
# Man(b1-4)GlcNAc = target: Man(b1-4)GlcNAc
# Summary of the method: as §1
# Neu5Ac(a2-3)Gal = target: Neu5Ac(a2-3)Gal
# Summary of the method: as §1
# [6] = target: Neu5Ac(a2-3)Gal(b1-3)GalNAc
# Summary of the method: as §1
# [7] = target: Neu5Ac(a2-3)Gal(b1-3)GalNAc(b1-3)Gal(a1-4)Gal(b1-4)Glc
# Summary of the method: as §1
# [8] = target: Neu5Ac(a2-3)Gal(b1-3)GalNAc(b1-4)[Neu5Ac(a2-3)]Gal(b1-4)Glc
# Summary of the method: as §1
# [9] = target: Neu5Ac(a2-3)Gal(b1-3)GalNAc6S
# Summary of the method: as §1
# [10] = target: Neu5Ac(a2-3)Gal(b1-3)GlcNAc
# Summary of the method: as §1
# [11] = target: Neu5Ac(a2-3)Gal(b1-3)GlcNAc(b1-2)Man(a1-3)[Neu5Ac(a2-3)Gal(b1-3)GlcNAc(b1-2)Man(a1-6)]Man(b1-4)GlcNAc(b1-4)GlcNAc
# Summary of the method: as §1
# [12] = target: Neu5Ac(a2-3)Gal(b1-3)GlcNAc(b1-3)Gal(b1-3)GlcNAc
# Summary of the method: as §1
# [13] = target: Neu5Ac(a2-3)Gal(b1-3)GlcNAc(b1-3)Gal(b1-4)GlcNAc
# Summary of the method: as §1
# [14] = target: Neu5Ac(a2-3)Gal(b1-3)GlcNAc(b1-3)GalNAc
# Summary of the method: as §1
# [15] = target: Neu5Ac(a2-3)Gal(b1-3)GlcNAc6S
# Summary of the method: as §1
# [16] = target: Neu5Ac(a2-3)Gal(b1-3)[Fuc(a1-4)]GlcNAc
# Summary of the method: as §1
# [17] = target: Neu5Ac(a2-3)Gal(b1-3)[Fuc(a1-4)]GlcNAc(b1-3)Gal(b1-3)[Fuc(a1-4)]GlcNAc
# Summary of the method: as §1
# [18] = target: Neu5Ac(a2-3)Gal(b1-3)[Fuc(a1-4)]GlcNAc(b1-3)Gal(b1-4)[Fuc(a1-3)]GlcNAc
# Summary of the method: as §1
# [19] = target: Neu5Ac(a2-3)Gal(b1-3)[Neu5Ac(a2-3)Gal(b1-4)]GlcNAc
# Summary of the method: as §1
# [20] = target: Neu5Ac(a2-3)Gal(b1-3)[Neu5Ac(a2-6)]GalNAc
# Summary of the method: as §1
# Neu5Ac(a2-3)Gal(b1-4)Glc = target: Neu5Ac(a2-3)Gal(b1-4)Glc
# Summary of the method: as §1
# [21] = target: Neu5Ac(a2-3)Gal(b1-4)GlcNAc
# Summary of the method: as §1
# [22] = target: Neu5Ac(a2-3)Gal(b1-4)GlcNAc(b1-2)Man(a1-3)[GlcNAc(b1-2)Man(b1-4)GlcNAc(b1-2)Man(a1-6)]Man(b1-4)GlcNAc(b1-4)GlcNAc
# Summary of the method: as §1
# [23] = target: Neu5Ac(a2-3)Gal(b1-4)GlcNAc(b1-2)Man(a1-3)[Neu5Ac(a2-6)Gal(b1-4)GlcNAc(b1-2)Man(a1-6)]Man(b1-4)GlcNAc(b1-4)GlcNAc
# Summary of the method: as §1
# [24] = target: Neu5Ac(a2-3)Gal(b1-4)GlcNAc(b1-3)Gal(b1-3)GlcNAc
# Summary of the method: as §1
# [25] = target: Neu5Ac(a2-3)Gal(b1-4)GlcNAc(b1-3)Gal(b1-4)GlcNAc
# Summary of the method: as §1
# [26] = target: Neu5Ac(a2-3)Gal(b1-4)GlcNAc(b1-3)Gal(b1-4)GlcNAc(b1-3)Gal(b1-4)GlcNAc
# Summary of the method: as §1
# [27] = target: Neu5Ac(a2-3)Gal(b1-4)GlcNAc(b1-3)Gal(b1-4)[Fuc(a1-3)]GlcNAc
# Summary of the method: as §1
# [28] = target: Neu5Ac(a2-3)Gal(b1-4)GlcNAc(b1-3)GalNAc
# Summary of the method: as §1
# [29] = target: Neu5Ac(a2-3)Gal(b1-4)GlcNAc(b1-6)[Gal(b1-3)]GalNAc
# Summary of the method: as §1
# [30] = target: Neu5Ac(a2-3)Gal(b1-4)GlcNAc(b1-6)[Neu5Ac(a2-3)Gal(b1-3)]GalNAc
# Summary of the method: as §1
# [31] = target: Neu5Ac(a2-3)Gal(b1-4)GlcNAc6S
# Summary of the method: as §1
# [32] = target: Neu5Ac(a2-3)Gal(b1-4)[Fuc(a1-3)]GlcNAc
# Summary of the method: as §1
binder,measurement,setting,value
"AcfC (Vibrio cholerae), Q57410 (protein) MKSKNRFLLISLLSFSTSVFADVNLYGPGGPHVPLIKVAESFEKSQSKRVNITFGPQATWNDKAKKNADILFGASEHSALAIAEGHSERFSKFNIHPVFMREAIILVKKGNPKNIKGMADLLKPGIGIVVNDGAGVSNTSGTAVWEDSVGRMKNVEKLQAFRSNIHVFAPNSGSARKAFVDGEDIDAWITWVDWAIANPTIGDMVRMEDEYRIYRDFNVVLAKNPSSEAIDFFDYLTKSKDAEAIFQHYGWFK",glycan array binding signal (z-score),[1],-0.097
same,glycan array binding signal (z-score),Man(a1-3)[Man(a1-6)]Man,-0.136
same,glycan array binding signal (z-score),[2],-1.02
same,glycan array binding signal (z-score),[3],0.134
same,glycan array binding signal (z-score),[4],-0.511
same,glycan array binding signal (z-score),[5],0.521
same,glycan array binding signal (z-score),Man(a1-6)Man,-1.06
same,glycan array binding signal (z-score),Man(b1-4)GlcNAc,0.11
same,glycan array binding signal (z-score),Neu5Ac(a2-3)Gal,-0.174
same,glycan array binding signal (z-score),[6],0.1
same,glycan array binding signal (z-score),[7],-0.717
same,glycan array binding signal (z-score),[8],0.14
same,glycan array binding signal (z-score),[9],0.717
same,glycan array binding signal (z-score),[10],0.153
same,glycan array binding signal (z-score),[11],-1.19
same,glycan array binding signal (z-score),[12],0.612
same,glycan array binding signal (z-score),[13],0.502
same,glycan array binding signal (z-score),[14],-1.13
same,glycan array binding signal (z-score),[15],-0.326
same,glycan array binding signal (z-score),[16],-0.296
same,glycan array binding signal (z-score),[17],0.566
same,glycan array binding signal (z-score),[18],0.2
same,glycan array binding signal (z-score),[19],0.1
same,glycan array binding signal (z-score),[20],1.01
same,glycan array binding signal (z-score),Neu5Ac(a2-3)Gal(b1-4)Glc,-0.649
same,glycan array binding signal (z-score),[21],-0.54
same,glycan array binding signal (z-score),[22],0.125
same,glycan array binding signal (z-score),[23],-0.901
same,glycan array binding signal (z-score),[24],-1.02
same,glycan array binding signal (z-score),[25],-0.624
same,glycan array binding signal (z-score),[26],0.074
same,glycan array binding signal (z-score),[27],-0.682
same,glycan array binding signal (z-score),[28],-0.182
same,glycan array binding signal (z-score),[29],0.034
same,glycan array binding signal (z-score),[30],-1.98
same,glycan array binding signal (z-score),[31],0.582
same,glycan array binding signal (z-score),[32],-1.18

# Reformatted with tabs: entries from further up.
binder	measurement	setting	value
AcfC (Vibrio cholerae), Q57410 (protein) MKSKNRFLLISLLSFSTSVFADVNLYGPGGPHVPLIKVAESFEKSQSKRVNITFGPQATWNDKAKKNADILFGASEHSALAIAEGHSERFSKFNIHPVFMREAIILVKKGNPKNIKGMADLLKPGIGIVVNDGAGVSNTSGTAVWEDSVGRMKNVEKLQAFRSNIHVFAPNSGSARKAFVDGEDIDAWITWVDWAIANPTIGDMVRMEDEYRIYRDFNVVLAKNPSSEAIDFFDYLTKSKDAEAIFQHYGWFK	glycan array binding signal (z-score)	[1]	-0.097
same	glycan array binding signal (z-score)	Man(a1-3)[Man(a1-6)]Man	-0.136
same	glycan array binding signal (z-score)	[2]	-1.02

# Source: the supplement of paper PMC8728848
